As usually defined, the AC50 is the concentration giving half of the maximal activity seen.

A short description of this assay: qHTS Assay for Modulators of Lamin A Splicing. The following applies: HeLa LMNA splicing GFP/RFP minigene ratio, 48 h. The gist of the method: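 S3 HeLa cells stably expressing lamin A-EGFP splicing minigene plus DsRed2, 600 cells/well, 48 h compound exposure at 37C. Laser-scanning cytometry; analysed as GFP (500-530 nm)/RFP (575-640 nm) total intensity ratio; 0.5% DMSO vehicle.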
A general note: Quantitative high-throughput screening tests each substance at several concentrations.

Setting [1] is: measured here: GFP splicing reporter channel.
[2] abbreviates: measured here: RFP viability control channel.

Where “and” joins values, the source holds several entries; their conditions need not be identical. Equal entries are not always repeated. This is one part of the list. The main result of the screen is listed elsewhere. These columns were measured beside it and carry no call. Compounds called inactive in the main read-out are mostly missing here. Potencies come from curve fits of mixed quality, noted in brackets.

With `O=C(O)C1=C(C(=O)Nc2cc(C(F)(F)F)ccc2Cl)CCCC1`, the half-maximal activity concentration (AC50) is, setting by setting: under setting [1], 2.24 µM [falling, partial curve, poor fit]; under setting [2], 2.51 µM [falling, partial curve, poor fit].

As to `CC(C)(C)c1cc(C(=O)Nc2cccc3ccccc23)ccn1`, the AC50 under setting [2] is 0.891 µM [rising, full curve, poor fit].

In the case of `CCc1cc2c(N3CCCCC3)ncnc2s1`, the half-maximal activity concentration (AC50) under setting [2] is 20 µM [rising, single point].

Take `COc1ccc(C)c(Cn2c(-c3nonc3N)nc3ccccc32)c1`: the concentration at half-maximal activity (AC50) under setting [2] is 7.94 µM [rising, partial curve, poor fit].

On to `CCOC(=O)c1cccc(NC(=O)CSc2nnc(C3CCCCC3)n2CC)c1`, for which the AC50 under setting [1] is 12.6 µM [rising, partial curve].

In the case of `COc1ccc(-n2nc(C#N)c(Cl)cc2=O)cc1`, the AC50 under setting [2] was 10 µM [falling, partial curve].

As to `CSc1ccc2c(c1)N(CCC1CCCCN1C)c1ccccc1S2` (stereo unspecified), the AC50 by setting is: under setting [1], 1.26 µM [falling, full curve, poor fit] and 12.6 µM [falling, partial curve] and 35.5 µM [falling, single point]; under setting [2], 25.1 nM [rising, partial curve, poor fit] and 14.1 µM [falling, partial curve].

Turning to `CCC/C(=N\NC(=O)Cc1csc(N2CCOCC2)n1)c1ccccc1`, the AC50 is 8.91 µM [falling, partial curve] under setting [1] and 15.8 µM [falling, single point] under setting [2].

In the case of `O=C(Cn1c(-c2cccs2)cc2cc(F)ccc21)N1CCN(c2cccc(Cl)c2)CC1`, under setting [1], the AC50 was 0.112 µM [falling, full curve].

`COc1cccc(Cc2nc3ccccc3nc2SCC(=O)N2CCN(c3ccccc3)CC2)c1`: the AC50 was 0.562 µM [rising, single point] under setting [1] and 0.708 µM [rising, single point] under setting [2].

For `O=C(N1CCN(c2ccccc2F)CC1)C1(c2cccs2)CCOCC1`, the concentration at half-maximal activity (AC50) is 17.8 µM [rising, single point] under setting [1] and 31.6 µM [rising, single point] under setting [2].

As to `Cc1noc(C)c1COc1cccc(C(=O)OCC(=O)N2CC(=O)Nc3ccccc32)c1`, the concentration at half-maximal activity (AC50) runs as follows: under setting [1], 2.82 µM [falling, full curve]; under setting [2], 5.01 µM [falling, full curve, poor fit].

For `CCC1CN(C(=O)Nc2cccc(OC)c2)c2ccccc2O1` (stereo unspecified), the AC50 under setting [1] is 4.47 µM [falling, partial curve, poor fit].

Regarding `CCC(CC)C(=O)Oc1c(Sc2ccccc2[N+](=O)[O-])c(C)nn1C(C)(C)C`, under setting [2], the AC50 is 31.6 µM [rising, single point].

As for `Cc1ccc(NC(C#N)c2ccccc2OCc2ccccc2)cc1` (stereo unspecified), the concentration at half-maximal activity (AC50) runs as follows: under setting [1], 12.6 µM [falling, partial curve]; under setting [2], 11.2 µM [falling, partial curve].

Consider `CCOc1ccc(-n2c(-c3ccccc3)c[n+]3c2CCC3)cc1`, for which the AC50 by setting is: under setting [1], 20 µM [rising, partial curve]; under setting [2], 14.1 µM [rising, partial curve].

For the molecule `CCCCS(=O)(=O)Nc1ccc2c(c1)ncn2C1CCCCC1`, under setting [2], the half-maximal activity concentration (AC50) is 17.8 µM [rising, single point].

Turning to `CC(=O)OCCNc1cc(SC(C)C)c2nonc2c1[N+](=O)[O-]`, the AC50 under setting [2] was 0.251 µM [falling, full curve, poor fit].

With `Cc1nnc(NC(=O)CSc2nccn2-c2cccc(C)c2C)s1`, under setting [2], the AC50 was 1.41 µM [rising, partial curve].

For `CC(C)(C)c1ccc(OCCCC(=O)NC2=NCCS2)cc1`, the AC50 under setting [1] was 12.6 µM [rising, partial curve] and the AC50 under setting [2] was 12.6 µM [rising, single point].

As to `O=C(C1CCCN1C(=O)c1cccs1)N1CCN(Cc2ccc3c(c2)OCO3)CC1` (stereo unspecified), under setting [1], the concentration at half-maximal activity (AC50) is 35.5 µM [rising, single point].

`CCOC(=O)C(N)CSC1CC(=O)N(c2ccc(C(=O)OC)cc2)C1=O` (stereo unspecified): under setting [2], the AC50 was 2.82 µM [falling, single point].

Take `COc1ccccc1N1CCN(C(c2cccs2)C(C)NC(=O)c2cccs2)CC1` (stereo unspecified): under setting [2], the AC50 is 35.5 µM [rising, single point].

For the molecule `O=C(O)CCCNS(=O)(=O)c1ccc(F)cc1`, under setting [2], the AC50 was 5.62 µM [falling, full curve, poor fit].

As for `CCOc1ccccc1NC(=O)Nc1cc(C(=O)NCc2ccc(C)cc2)ccc1N1CCCC1`, the concentration at half-maximal activity (AC50) is 25.1 µM [falling, single point] under setting [1] and 25.1 µM [falling, partial curve] under setting [2].

As for `COc1ccc(OC)c(NC(=O)c2c(NCc3ccc(OC)c(OC)c3)sc3c2CCC3)c1`, the concentration at half-maximal activity (AC50) under setting [1] was 12.6 µM [falling, single point].

Turning to `CC/C(=C(/CC)c1ccc(O)cc1)c1ccc(O)cc1`, the half-maximal activity concentration (AC50) under setting [1] is 20 µM [rising, partial curve, poor fit] and the half-maximal activity concentration (AC50) under setting [2] was 11.2 µM [rising, partial curve, poor fit].

On to `Cc1ccc(NS(=O)(=O)c2cc(NC(=O)c3ccc4c(c3)NC(=O)CS4)ccc2C)c(C)c1`, for which the concentration at half-maximal activity (AC50) under setting [1] was 35.5 µM [rising, single point] and the concentration at half-maximal activity (AC50) under setting [2] was 35.5 µM [rising, single point].

On to `COc1ccc2nc3sc(C(=O)NCc4cccs4)c(N)c3cc2c1`, for which, under setting [2], the AC50 was 22.4 µM [falling, partial curve].

For the molecule `CCOC(=O)c1sc(NC(=O)/C=C/c2ccccc2)nc1C`, the concentration at half-maximal activity (AC50) under setting [2] was 3.98 µM [rising, full curve, poor fit].

Take `CCN(CC)c1ccc(/C=N/Nc2nc3ccccc3[nH]2)cc1`: the concentration at half-maximal activity (AC50) was 4.47 µM [rising, partial curve] under setting [1] and 6.31 µM [rising, partial curve] under setting [2].

Consider `Cc1nc2ccccc2c2oc(C(=O)NCC3CCCO3)cc12` (stereo unspecified), for which the concentration at half-maximal activity (AC50) under setting [2] was 12.6 µM [rising, partial curve].

As to `COc1ccc(NC(=O)CN2C(=O)CCc3cc(S(=O)(=O)N4CCOCC4)ccc32)c(OC)c1`, under setting [2], the AC50 is 0.501 µM [rising, single point].

Regarding `Cc1c(/C=C/C(=O)c2ccc(Cl)s2)cnn1C`, the AC50 under setting [2] is 31.6 µM [rising, single point].

On to `O=C1C(Cl)=C(NCCCO)C(=O)c2ccccc21`, for which the AC50 under setting [2] was 35.5 µM [rising, single point].

Turning to `c1ccc(NCc2nc3ccccc3n2CCOc2ccccc2)cc1`, under setting [2], the concentration at half-maximal activity (AC50) is 11.2 µM [rising, partial curve, poor fit].

Consider `COc1ccc(N2CCN(C(=O)c3ccc4c(=O)n(CCc5ccc(OC)c(OC)c5)c(=O)[nH]c4c3)CC2)cc1`, for which the concentration at half-maximal activity (AC50) was 11.2 µM [falling, single point] and 25.1 µM [falling, partial curve, poor fit] under setting [1]; 14.1 µM [falling, single point] and 31.6 µM [falling, partial curve, poor fit] under setting [2].

On to `CCn1c(SCc2nc3ccccc3[nH]2)nnc1-c1ccccc1OC`, for which the AC50 by setting is: under setting [1], 0.355 µM [rising, full curve, poor fit]; under setting [2], 5.62 µM [rising, partial curve, poor fit].

Turning to `Cc1ccc(N2CCN(C(=O)c3ccccc3Br)CC2)c(C)c1`, the AC50 under setting [2] is 20 µM [rising, partial curve, poor fit].

`Cc1noc(C)c1COC(=O)c1ccc(N(C)C)cc1`: under setting [1], the AC50 is 12.6 µM [falling, partial curve].

With `NC(N)=Nc1nc(CSCC/C(N)=N/S(N)(=O)=O)cs1`, the AC50 reads like this: under setting [1], 355 nM [falling, partial curve, poor fit] and 5.62 nM [falling, full curve, poor fit] and 6.31 µM [falling, partial curve, poor fit]; under setting [2], 282 nM [falling, partial curve, poor fit] and 28.2 nM [falling, full curve, poor fit] and 5.62 µM [falling, single point].

For the molecule `CS(=O)(=O)N(CCc1ccccc1)CC(=O)Nc1ccc(OCc2ccccc2)cc1`, the half-maximal activity concentration (AC50) was 15.8 µM [falling, single point] under setting [1] and 15.8 µM [falling, single point] under setting [2].

On to `Cc1ccc2[nH]c(=O)c(CN(Cc3ccccc3)C(=S)NCCCN(C)C)cc2c1`, for which the AC50 under setting [2] was 10 µM [falling, partial curve].

With `CCn1c(SCC(=O)Nc2ccc(C)cc2)nnc1-c1ccc(O)cc1`, the concentration at half-maximal activity (AC50) under setting [2] was 14.1 µM [rising, partial curve, poor fit].

As for `CCC(C)(C)n1nnnc1CN1CCC(NC(=O)c2ccc(Br)cc2)CC1`, the AC50 under setting [2] is 20 µM [rising, single point].

In the case of `CCc1ccccc1N1CCN(S(=O)(=O)c2cc(OC)ccc2OC)CC1`, the AC50 under setting [2] is 15.8 µM [rising, partial curve, poor fit].

In the case of `CCCN(CCC)C(=O)COc1cc(=O)n(CC)c2ccccc12`, the concentration at half-maximal activity (AC50) under setting [2] was 3.98 µM [rising, single point].

On to `CN(NC(=O)c1ccccc1F)c1nc(C(F)(F)F)nc2ccccc12`, for which the concentration at half-maximal activity (AC50) under setting [2] is 12.6 µM [rising, partial curve, poor fit].

With `OCCN(Cc1nc(-c2ccc3c(c2)OCO3)no1)Cc1cccs1`, the AC50 under setting [2] is 22.4 µM [falling, partial curve, poor fit].

In the case of `CC(=O)N1CCc2c(sc3c2c(=O)n(-c2ccccc2Cl)c(=O)n3Cc2cccc(C)c2)C1`, the AC50 by setting is: under setting [1], 35.5 µM [rising, single point]; under setting [2], 35.5 µM [rising, single point].

As to `CC(NC(=O)CSC1=NCCS1)c1ccccc1` (stereo unspecified), the concentration at half-maximal activity (AC50) under setting [2] is 35.5 µM [rising, single point].

`O=C(Nc1cccc(Cl)c1)Nc1cccc(Cl)c1`: the AC50 under setting [2] is 15.8 µM [rising, single point].

In the case of `C=C(C)COc1ccc(-c2[nH]ncc2Oc2ccccc2OCC)c(O)c1`, under setting [2], the AC50 is 35.5 µM [rising, single point].
